In paper PMC2877774:
These are yes or no findings as the source states them, for the method shown. Some results given as binding are weak or reduced against the parent protein; the word gives no strength.

By UniProt entry, the sequences of proteins in these tests, tags left out. Residues count along the entry.
UniProt P9WGH5, residues 99-177: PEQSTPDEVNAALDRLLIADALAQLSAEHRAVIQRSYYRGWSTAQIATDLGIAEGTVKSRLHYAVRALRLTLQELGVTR

Target: σ4^L, the −35-element recognition domain of Mycobacterium tuberculosis σ^L (Mycobacterium tuberculosis) (UniProt P9WGH5)
Assay: SEC; size-exclusion chromatography of σ4^L alone; data not shown; both purified

σ4^L, the −35-element recognition domain of Mycobacterium tuberculosis σ^L (from UniProt P9WGH5 99-177) (domain or fragment)
binding: binds
